Results are given in words; binding and its absence hold for the method and conditions named. Binding seen in cells or lysates may run through a third protein. Some results given as binding are weak or reduced against the parent protein; the word gives no strength.
Key:
[1] = biological target: hypoxia inducible factor 1, α subunit (basic helix-loop-helix transcription factor) (human (endogenous in HeLa)) (UniProt Q16665); assay: co-IP; native conditions (lysis buffer 50 mM TRIS-HCl pH 7.4, 150 mM NaCl, 0.5% NP-40; washes 0.15% NP-40), 2 ug antibody overnight at 4 °C, protein G-Sepharose; HeLa cells transfected with HA-ubiquitin (wild type or mutants), with or without serum, 300 uM CoCl2, 25 nM BafA, 6 h; endogenous proteins, blot
[2] = biological target: lysosomal-associated membrane protein 2A (human (endogenous in HeLa)) (UniProt P13473); assay: condition: only in cells overexpressing ubiquitin mutants that impair K63 chain formation (K48, K63R); co-IP; as a1, native conditions, in HeLa cells overexpressing HA-ubiquitin mutants that impair K63 chain formation (K48, K63R)
[3] = biological target: HSC70 (heat shock 70 kDa protein 8) (human (endogenous in HeLa)) (UniProt P11142); assay: co-IP; native conditions (lysis buffer 50 mM TRIS-HCl pH 7.4, 150 mM NaCl, 0.5% NP-40; washes 0.15% NP-40), 2 ug antibody overnight at 4 °C, protein G-Sepharose; HeLa cells transfected with HA-ubiquitin (wild type or mutants), with or without serum, 300 uM CoCl2, 25 nM BafA, 6 h; endogenous proteins, blot
[4] = biological target: lysosomal-associated membrane protein 2A (human (endogenous in HeLa)) (UniProt P13473); assay: as above

Protein sequences, listed by entry. Tags and fused reporters are not part of them. Residues count along the entry.
UniProt Q16665: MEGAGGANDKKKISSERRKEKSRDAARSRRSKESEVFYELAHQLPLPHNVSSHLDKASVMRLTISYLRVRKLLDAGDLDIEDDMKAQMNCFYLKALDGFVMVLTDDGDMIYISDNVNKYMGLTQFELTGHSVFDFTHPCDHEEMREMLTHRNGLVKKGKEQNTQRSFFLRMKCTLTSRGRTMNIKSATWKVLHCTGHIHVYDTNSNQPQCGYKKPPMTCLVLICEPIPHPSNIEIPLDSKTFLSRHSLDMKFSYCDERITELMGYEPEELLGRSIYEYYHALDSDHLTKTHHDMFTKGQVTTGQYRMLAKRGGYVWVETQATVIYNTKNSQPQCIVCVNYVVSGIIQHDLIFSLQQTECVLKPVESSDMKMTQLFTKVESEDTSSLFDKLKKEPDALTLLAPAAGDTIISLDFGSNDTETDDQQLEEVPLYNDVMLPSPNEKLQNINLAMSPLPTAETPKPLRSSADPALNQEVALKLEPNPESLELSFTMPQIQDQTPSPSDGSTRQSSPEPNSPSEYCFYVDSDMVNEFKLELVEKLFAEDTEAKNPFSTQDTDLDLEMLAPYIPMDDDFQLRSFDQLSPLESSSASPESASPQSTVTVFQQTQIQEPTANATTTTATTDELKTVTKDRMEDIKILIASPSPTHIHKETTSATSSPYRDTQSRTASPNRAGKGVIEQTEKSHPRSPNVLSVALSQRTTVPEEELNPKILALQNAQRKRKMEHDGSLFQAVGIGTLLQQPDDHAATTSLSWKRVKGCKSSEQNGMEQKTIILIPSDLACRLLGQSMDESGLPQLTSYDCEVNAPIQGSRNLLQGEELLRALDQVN
UniProt P13473, residues 29-410: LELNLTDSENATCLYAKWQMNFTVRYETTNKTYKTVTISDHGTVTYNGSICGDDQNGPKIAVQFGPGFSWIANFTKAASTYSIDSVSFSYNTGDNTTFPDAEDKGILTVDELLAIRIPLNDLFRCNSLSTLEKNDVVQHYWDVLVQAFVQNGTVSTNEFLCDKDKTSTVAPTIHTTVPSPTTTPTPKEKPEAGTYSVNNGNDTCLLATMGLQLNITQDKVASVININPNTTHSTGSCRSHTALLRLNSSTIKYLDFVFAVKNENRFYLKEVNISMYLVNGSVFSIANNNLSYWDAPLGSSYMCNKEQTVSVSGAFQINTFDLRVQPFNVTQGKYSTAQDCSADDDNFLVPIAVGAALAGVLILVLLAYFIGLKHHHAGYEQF
UniProt P11142: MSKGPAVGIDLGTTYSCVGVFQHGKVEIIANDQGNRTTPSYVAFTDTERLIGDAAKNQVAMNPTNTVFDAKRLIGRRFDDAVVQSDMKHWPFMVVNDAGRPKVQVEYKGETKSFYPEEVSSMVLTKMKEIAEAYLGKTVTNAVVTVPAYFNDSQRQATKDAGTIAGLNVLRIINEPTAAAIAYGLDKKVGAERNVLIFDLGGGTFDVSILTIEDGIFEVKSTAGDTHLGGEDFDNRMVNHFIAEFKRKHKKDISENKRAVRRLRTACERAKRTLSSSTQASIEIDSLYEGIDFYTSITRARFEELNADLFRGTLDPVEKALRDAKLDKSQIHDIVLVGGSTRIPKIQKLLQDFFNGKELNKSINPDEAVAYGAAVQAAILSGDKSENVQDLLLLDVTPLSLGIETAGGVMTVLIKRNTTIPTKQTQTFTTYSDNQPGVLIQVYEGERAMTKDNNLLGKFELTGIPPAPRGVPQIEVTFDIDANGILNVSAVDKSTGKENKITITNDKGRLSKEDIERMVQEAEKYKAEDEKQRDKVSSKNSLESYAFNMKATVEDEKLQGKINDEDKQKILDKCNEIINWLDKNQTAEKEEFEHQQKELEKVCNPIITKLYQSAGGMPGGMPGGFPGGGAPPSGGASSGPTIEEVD

| binding [1] | binding [2] | binding [3] | binding [4] | Substance |
| --- | --- | --- | --- | --- |
| binds | – | – | – | HSC70 (heat shock 70 kDa protein 8) (from UniProt P11142 1-646) |
| – | no binding | binds | binds | hypoxia inducible factor 1, α subunit (basic helix-loop-helix transcription factor) (from UniProt Q16665 1-826) |
